The text below walks through data of publication PMC8119947.

Protein sequences, listed by entry. Tags and fused reporters are not part of them. Residues count along the entry.
UniProt P41597: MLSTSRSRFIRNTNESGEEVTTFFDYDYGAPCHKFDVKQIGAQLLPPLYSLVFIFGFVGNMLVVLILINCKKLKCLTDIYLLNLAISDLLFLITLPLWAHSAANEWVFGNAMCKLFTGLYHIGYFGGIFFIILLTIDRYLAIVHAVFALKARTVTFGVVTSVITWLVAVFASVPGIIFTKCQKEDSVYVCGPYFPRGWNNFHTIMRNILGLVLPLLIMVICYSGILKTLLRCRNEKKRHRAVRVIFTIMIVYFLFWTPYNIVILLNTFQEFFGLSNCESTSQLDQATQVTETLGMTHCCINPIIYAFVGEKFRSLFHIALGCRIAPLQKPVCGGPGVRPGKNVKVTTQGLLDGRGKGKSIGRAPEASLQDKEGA
UniProt P40763: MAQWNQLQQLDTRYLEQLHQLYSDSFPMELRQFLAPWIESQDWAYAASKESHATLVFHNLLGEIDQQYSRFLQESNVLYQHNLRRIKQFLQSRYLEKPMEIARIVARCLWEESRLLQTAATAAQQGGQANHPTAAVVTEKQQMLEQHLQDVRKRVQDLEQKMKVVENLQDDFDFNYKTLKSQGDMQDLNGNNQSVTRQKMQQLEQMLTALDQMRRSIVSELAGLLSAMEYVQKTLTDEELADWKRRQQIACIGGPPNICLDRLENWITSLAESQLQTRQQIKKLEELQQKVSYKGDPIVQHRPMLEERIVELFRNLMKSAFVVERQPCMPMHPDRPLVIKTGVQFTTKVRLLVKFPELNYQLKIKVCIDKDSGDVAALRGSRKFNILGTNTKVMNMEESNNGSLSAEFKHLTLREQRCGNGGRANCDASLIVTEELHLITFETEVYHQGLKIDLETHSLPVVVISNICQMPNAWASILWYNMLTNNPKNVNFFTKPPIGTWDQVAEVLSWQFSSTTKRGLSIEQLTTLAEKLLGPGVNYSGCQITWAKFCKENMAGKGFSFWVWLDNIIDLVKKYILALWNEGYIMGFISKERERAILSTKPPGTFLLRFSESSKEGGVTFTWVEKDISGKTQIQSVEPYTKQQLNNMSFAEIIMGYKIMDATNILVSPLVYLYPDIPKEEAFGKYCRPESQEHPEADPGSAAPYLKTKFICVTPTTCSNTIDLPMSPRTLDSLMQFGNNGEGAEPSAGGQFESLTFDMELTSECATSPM
UniProt P80098, residues 24-99: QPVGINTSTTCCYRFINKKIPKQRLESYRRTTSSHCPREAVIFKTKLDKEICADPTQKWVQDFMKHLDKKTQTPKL

For assay [1], the target named is CCR2 (human (endogenous in HT29)) (UniProt P41597). The experiment in a line: co-IP; lysate of dormant HT29 cells, pre-cleared 2 h at 4 °C with IgG and protein A + G agarose; CCR2 and CCL7 antibodies added at 4 °C overnight; blotted; cells with or without treatment with recombinant protein CCL7.
Assay [2] shares this target. The experiment in a line: co-IP; lysate of dormant HT29 cells, pre-cleared 2 h at 4 °C with IgG and protein A + G agarose; CCR2 and CCL7 antibodies added at 4 °C overnight; blotted with CCR2 and CCL7 antibodies; source of the CCL7 (recombinant, added to the cells, or other) not told.

These are yes or no findings as the source states them, for the method shown. In cells and extracts the contact can be indirect. Some entries that bind do so weakly or less than the wild type.

In the case of STAT3 (from UniProt P40763 1-770), in assay [1], the binding entry is “binds”. As for “chemokine (C-C motif) ligand 7 (CCL7) (from UniProt P80098 24-99)”, the binding result in assay [2] is given as “binds”.
